# Data as given in publication PMC8146835.
# Chains of the proteins cited; added tags and fusions are not shown.
# UniProt P06730: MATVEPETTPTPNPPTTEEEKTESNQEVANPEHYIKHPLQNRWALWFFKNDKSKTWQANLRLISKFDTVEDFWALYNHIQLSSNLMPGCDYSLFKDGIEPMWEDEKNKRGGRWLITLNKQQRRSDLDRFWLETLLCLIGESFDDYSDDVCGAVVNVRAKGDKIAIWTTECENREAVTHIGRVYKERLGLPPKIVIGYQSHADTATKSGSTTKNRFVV
# UniProt P04792: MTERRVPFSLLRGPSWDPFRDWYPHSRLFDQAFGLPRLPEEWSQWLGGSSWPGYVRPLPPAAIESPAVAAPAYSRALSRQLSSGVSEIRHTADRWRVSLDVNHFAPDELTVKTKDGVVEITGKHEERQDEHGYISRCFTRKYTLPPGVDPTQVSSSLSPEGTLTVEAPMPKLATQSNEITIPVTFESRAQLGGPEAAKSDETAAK
# Results are given in words; binding and its absence hold for the method and conditions named. In cells and extracts the contact can be indirect. Some binding calls cover weakened binding; strength is not graded here.
# Target: eukaryotic translation initiation factor 4E (eIF4E) (human (endogenous in PC-3)) (UniProt P06730)
# Experiment: co-IP; 1 mg PC-3 lysate incubated with rabbit anti-eIF4E antibody O/N at 4 °C, Trueblot anti-rabbit Ig IP beads, Western blot for Hsp27; cells treated for 48 h with DMSO (control), phenazine #14, DOTAU, DOU-PEG2000, NP DOTAU-phenazine #14 or NP DOU-PEG2000-phenazine #14 at 100 µM
substance,measurement,value
Heat shock protein 27 (Hsp27) (from UniProt P04792 1-205),binding,binds
